Data taken from PubChem BioAssay AID540256 (National Center for Advancing Translational Sciences (NCATS), 2011).
The whole screen tested about 300,000 compounds, of which about 3,700 (1.2%) were called active. The shares of active, inactive and inconclusive entries below differ from those in the screen. Calls follow the shape of the full dose curve; tested in HEK293 cells. Potencies of inconclusive entries are doubtful fits and often do not repeat.

Assay: qHTS for Inhibitors of binding or entry into cells for Lassa Virus; also: nearly all actives have a fitted effect of over 50% in size
Settings: Lassa virus pseudotype entry inhibition, cell reporter; activity change, negative = inhibition: at 37.9 µM (top of the series) unless noted
% is scaled to controls: 0 for no effect and ±100 for the full control effect; potency is read from the fitted curve at half-maximal effect.

| SMILES | Potency | activity change, negative = inhibition |
| --- | --- | --- |
| O=C(Nc1ccc2c(c1)OCCO2)c1ccc(NC(=O)C2CCCO2)cc1 (centres undefined) | inconclusive: 6.51 µM [activator, partial curve, poor fit] | – |
| CCc1ccc2c(c1)C1(NN=C(c3ccc(C)cc3)S1)C(=O)N2 (centres undefined) | – | inactive: 3.48% |
| CCOc1ccc(NC(=O)c2ccccc2NS(=O)(=O)c2ccc(F)cc2)c([N+](=O)[O-])c1 | inconclusive: 22.4 µM [inhibitor, single point] | – |
| CCc1nnc(NC(=O)CSc2ccc(-c3ccco3)nn2)s1 | – | inactive: -4.34% |
| CC(=O)c1c(O)c(C)c(O)c(Cc2c(O)c3c(c(C(=O)/C=C/c4ccccc4)c2O)OC(C)(C)C=C3)c1O | inconclusive: 29.1 µM [inhibitor, single point] | – |
| Cc1ccccc1OCC(=O)NC1CCCCCCC1 | – | inactive: -26.3% |
| C=CCN1C(c2cccc(C(F)(F)F)c2)=CS/C1=C(/C#N)c1nnc(N2CCOCC2)n1-c1ccccc1 | inconclusive: 10 µM [inhibitor, partial curve] | – |
| Cc1ccc(S(=O)(=O)Oc2ccc(/C=C(/NC(=O)c3ccccc3)C(=O)Nc3ccccc3)cc2)cc1 | – | inactive: 5.4% |
| CC(=O)c1ccc(N2C(=O)N(Cc3ccccc3C#N)c3ccccc3S2(=O)=O)cc1 | – | inactive: -7.52% [at 46.1 µM] |
| CN1C(=O)/C(=C/C=C2\SCCN2C)N(C)C1=S | inconclusive: 1.58 µM [activator, partial curve, poor fit] | – |
| O=c1oc2cc(O)ccc2c2oc3cc(O)ccc3c12 | – | inactive: -17.1% |
| c1ccc(-n2ncc3c(NCC4CCCO4)ncnc32)cc1 (centres undefined) | inconclusive: 35.5 µM [inhibitor, single point] | – |
| COc1cc(NC(=O)CCc2nc3cccnc3n2Cc2cccs2)cc(OC)c1OC | – | inactive: -3.77% [at 46.1 µM] |
| O=C(COC(=O)CNC(=O)c1ccccc1)Nc1nc(-c2ccccc2)cs1 | inconclusive: 6.31 µM [activator, partial curve, poor fit] | – |
| CCN(CC)S(=O)(=O)c1ccc(OC)c(NC(=O)CC2CCCC2)c1 | – | inactive: -3.08% |
| CCOc1cc(CNCCc2ccc(S(N)(=O)=O)cc2)cc(Cl)c1OCc1ccccc1 | inconclusive: 29.1 µM [inhibitor, single point] | – |
| Cc1ccc(N2CCN(S(=O)(=O)c3ccc(C)cc3)CC2)cc1 | inconclusive: 0.316 µM [inhibitor, partial curve, poor fit] | – |
| Cc1ccc(C(=O)Nc2ccc3c(c2)C(=O)N(CC2CCCO2)C3=O)cc1 (centres undefined) | inconclusive: 35.5 µM [activator, partial curve, poor fit] | – |
| Cc1ccc(C(=O)NCCNc2ncc(C(F)(F)F)cc2Cl)cc1[N+](=O)[O-] | inconclusive: 12.6 µM [inhibitor, single point] | – |

3 compounds from above, ordered by molecular weight, ascending.

| SMILES | Potency | activity change, negative = inhibition |
| --- | --- | --- |
| CCc1nnc(NC(=O)CSc2ccc(-c3ccco3)nn2)s1 | – | inactive: -4.34% |
| Cc1ccc(C(=O)NCCNc2ncc(C(F)(F)F)cc2Cl)cc1[N+](=O)[O-] | inconclusive: 12.6 µM [inhibitor, single point] | – |
| COc1cc(NC(=O)CCc2nc3cccnc3n2Cc2cccs2)cc(OC)c1OC | – | inactive: -3.77% [at 46.1 µM] |
